Here are results for one substance from PMC12499447, “API5 Phosphorylation Promotes Antiviral Immunity by Inhibiting Degradation of Cytosolic RNA Sensor RLRs” (Advanced Science, 2025).

The chains behind the UniProt entries cited, without tags or fusion partners.
UniProt Q96SB4: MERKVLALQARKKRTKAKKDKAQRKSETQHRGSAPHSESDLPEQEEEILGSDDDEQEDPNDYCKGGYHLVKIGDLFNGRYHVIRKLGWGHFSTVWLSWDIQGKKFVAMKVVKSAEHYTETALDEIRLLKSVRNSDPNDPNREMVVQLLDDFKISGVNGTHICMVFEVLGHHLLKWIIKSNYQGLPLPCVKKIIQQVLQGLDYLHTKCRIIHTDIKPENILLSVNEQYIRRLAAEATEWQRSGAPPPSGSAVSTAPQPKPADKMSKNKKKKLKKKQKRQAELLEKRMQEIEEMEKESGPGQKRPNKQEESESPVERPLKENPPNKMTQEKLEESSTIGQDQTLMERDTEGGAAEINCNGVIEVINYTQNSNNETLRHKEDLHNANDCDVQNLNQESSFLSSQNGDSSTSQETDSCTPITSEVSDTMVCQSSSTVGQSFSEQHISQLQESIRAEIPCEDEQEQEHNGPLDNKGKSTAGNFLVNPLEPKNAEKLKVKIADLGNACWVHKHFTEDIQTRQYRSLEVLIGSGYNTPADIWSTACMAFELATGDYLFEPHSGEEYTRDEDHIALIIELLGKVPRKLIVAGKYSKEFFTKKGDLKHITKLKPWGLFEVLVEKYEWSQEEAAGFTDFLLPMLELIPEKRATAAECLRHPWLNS

No constants are given. Whether binding was seen depends on the method and setting. Binding seen in cells or lysates may run through a third protein. A yes stands for co-enrichment or nearness to the bait. Other partners may have been found. Tags and fused reporters may be left off the sequences shown.

In this experiment the target is T1, Flag-API5 (human) (UniProt Q9BZZ5).
T1 sequence: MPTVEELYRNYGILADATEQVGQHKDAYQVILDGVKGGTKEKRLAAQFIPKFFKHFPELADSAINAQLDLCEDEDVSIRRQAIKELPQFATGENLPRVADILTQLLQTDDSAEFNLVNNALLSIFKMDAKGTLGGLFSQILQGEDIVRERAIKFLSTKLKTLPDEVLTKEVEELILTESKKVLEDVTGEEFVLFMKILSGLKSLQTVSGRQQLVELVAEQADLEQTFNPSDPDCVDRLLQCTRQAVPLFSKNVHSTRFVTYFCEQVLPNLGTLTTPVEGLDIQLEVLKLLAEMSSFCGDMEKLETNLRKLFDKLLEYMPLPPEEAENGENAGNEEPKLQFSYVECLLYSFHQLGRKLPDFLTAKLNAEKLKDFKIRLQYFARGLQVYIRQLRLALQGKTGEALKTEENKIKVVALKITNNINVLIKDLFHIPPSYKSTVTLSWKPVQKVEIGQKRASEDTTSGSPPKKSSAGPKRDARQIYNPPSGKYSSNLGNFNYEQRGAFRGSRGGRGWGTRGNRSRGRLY
The experiment in a line: affinity purification with mass spectrometry.

Take “Serine/arginine-rich protein kinase 1 (SRPK1), endogenous (from UniProt Q96SB4 1-655) (enzyme)”: the binding result is recorded as “binds”.
